PubChem BioAssay AID1224828, NIAID, 2016
Assay: 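Regulators linking TLR4 signalling to p65 nuclear translocation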 (primary screen). System: mouse RAW264.7 G9 macrophage reporter cells (GFP-p65, Tnf promoter-mCherry). Reagents: siRNA pool against mouse genes, 100 nM. Timing: 2 days siRNA transfection, then 40 min LPS before fixation. Conditions: LPS (Salmonella minnesota R595) at 10 ng/ml. Measured: 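Imaged p65 nuclear translocation ratio, normalised to the plate median, converted to robust z-scores and averaged across two replicates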. Reading the numbers: p65 translocation robust z-score: higher = more nuclear NF-kappaB p65 after LPS than the plate median; nuclear/cytoplasmic p65 ratio: higher = more nuclear NF-kappaB p65. Call rule: 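Called active when z exceeds 3.3 or falls under -1.56 (median of Tlr4 controls), giving activity score of at least 50; no calls for control wells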. Calls: active = hit (p65 shift raised or lowered); inactive = no clear change.
This is a random part of about 17,000 deposited reagents. Over the whole deposit, 762 (4.5%) are marked active. 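Active calls include both raised and lowered p65 entry, mostly lowered; wells with fewer than 50 cells lack a z-score.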 Raw values vary from plate to plate and are shown uncorrected. The numbers tell different reagents against one gene apart.

gene	pool no.	p65 translocation robust z-score	nuclear/cytoplasmic p65 ratio, rep 1	nuclear/cytoplasmic p65 ratio, rep 2	low cell count flag	call
Gmps	1	-0.94	1.28	1.28	enough cells to score	inactive
Xlr3a	1	-1.25	1.17	1.11	enough cells to score	inactive
Cab39	1	-0.26	1.49	1.81	enough cells to score	inactive
Stn1	1	0.81	1.76	1.46	enough cells to score	inactive
Arhgef9	1	-0.33	1.58	1.55	enough cells to score	inactive
Agpat3	1	0.17	1.69	1.65	enough cells to score	inactive
Gipc2	1	1.26	1.75	1.72	enough cells to score	inactive
Sema4f	1	0.56	1.51	1.29	enough cells to score	inactive
Gp1ba	1	-0.17	1.37	1.39	enough cells to score	inactive
Ddx3x	1	-0.39	1.47	1.54	enough cells to score	inactive
Ddx3x	2	2.91	1.95	1.93	enough cells to score	inactive
Gpr174	1	-0.91	1.37	1.57	enough cells to score	inactive
Timm22	1		1.23	1.18	fewer than 50 cells per well; well left out of scoring	inactive
Pacc1	1		1.23	1.43	fewer than 50 cells per well; well left out of scoring	inactive
Edc4	1	0.49	1.57	2.01	enough cells to score	inactive
Atp1b2	1	-0.12	1.44	1.64	enough cells to score	inactive

In a second layout: results already given
Ddx3x #1
- p65 translocation robust z-score: -0.39
- nuclear/cytoplasmic p65 ratio, rep 1: 1.47
- nuclear/cytoplasmic p65 ratio, rep 2: 1.54
- low cell count flag: enough cells to score
- call: inactive

Ddx3x #2
- p65 translocation robust z-score: 2.91
- nuclear/cytoplasmic p65 ratio, rep 1: 1.95
- nuclear/cytoplasmic p65 ratio, rep 2: 1.93
- low cell count flag: enough cells to score
- call: inactive

Gpr174
- p65 translocation robust z-score: -0.91
- nuclear/cytoplasmic p65 ratio, rep 1: 1.37
- nuclear/cytoplasmic p65 ratio, rep 2: 1.57
- low cell count flag: enough cells to score
- call: inactive

Timm22
- nuclear/cytoplasmic p65 ratio, rep 1: 1.23
- nuclear/cytoplasmic p65 ratio, rep 2: 1.18
- low cell count flag: fewer than 50 cells per well; well left out of scoring
- call: inactive

More reagents follow.
gene	pool no.	p65 translocation robust z-score	nuclear/cytoplasmic p65 ratio, rep 1	nuclear/cytoplasmic p65 ratio, rep 2	low cell count flag	call
Tmem268	1	0.24	1.33	1.56	enough cells to score	inactive
Efcab8	1	3.4	1.48	2	enough cells to score	active
Rab10	1	-0.11	1.5	1.5	enough cells to score	inactive
Sema6c	1		1.78	1.27	fewer than 50 cells per well; well left out of scoring	inactive
Ina	1	-0.59	1.46	1.32	enough cells to score	inactive
Ugt2a1	1	0.28	1.37	1.26	enough cells to score	inactive
Slc29a4	1		0.919	1.28	fewer than 50 cells per well; well left out of scoring	inactive
Slc3a1	1	-1.69	1.27	1.38	enough cells to score	active
